# Results taken from paper PMC8082149.
# The chains behind the UniProt entries cited, without tags or fusion partners.
# UniProt Q13546: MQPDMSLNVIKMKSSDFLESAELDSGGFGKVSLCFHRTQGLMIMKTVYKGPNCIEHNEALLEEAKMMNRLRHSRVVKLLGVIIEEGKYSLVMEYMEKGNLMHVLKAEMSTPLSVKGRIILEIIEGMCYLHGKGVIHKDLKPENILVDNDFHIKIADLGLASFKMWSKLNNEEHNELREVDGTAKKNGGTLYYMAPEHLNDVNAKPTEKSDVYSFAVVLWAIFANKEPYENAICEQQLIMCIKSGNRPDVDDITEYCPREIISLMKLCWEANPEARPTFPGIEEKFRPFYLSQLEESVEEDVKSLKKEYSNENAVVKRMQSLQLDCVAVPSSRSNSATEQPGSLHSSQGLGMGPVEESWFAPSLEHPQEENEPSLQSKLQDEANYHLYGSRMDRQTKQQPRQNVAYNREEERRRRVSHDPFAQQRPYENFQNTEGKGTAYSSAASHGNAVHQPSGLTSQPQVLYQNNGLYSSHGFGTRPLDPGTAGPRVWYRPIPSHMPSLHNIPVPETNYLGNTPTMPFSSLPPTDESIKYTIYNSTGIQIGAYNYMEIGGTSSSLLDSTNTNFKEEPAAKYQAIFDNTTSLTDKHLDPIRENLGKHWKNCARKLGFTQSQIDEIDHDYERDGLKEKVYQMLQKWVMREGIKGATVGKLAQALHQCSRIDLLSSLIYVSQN
# UniProt Q9Y572: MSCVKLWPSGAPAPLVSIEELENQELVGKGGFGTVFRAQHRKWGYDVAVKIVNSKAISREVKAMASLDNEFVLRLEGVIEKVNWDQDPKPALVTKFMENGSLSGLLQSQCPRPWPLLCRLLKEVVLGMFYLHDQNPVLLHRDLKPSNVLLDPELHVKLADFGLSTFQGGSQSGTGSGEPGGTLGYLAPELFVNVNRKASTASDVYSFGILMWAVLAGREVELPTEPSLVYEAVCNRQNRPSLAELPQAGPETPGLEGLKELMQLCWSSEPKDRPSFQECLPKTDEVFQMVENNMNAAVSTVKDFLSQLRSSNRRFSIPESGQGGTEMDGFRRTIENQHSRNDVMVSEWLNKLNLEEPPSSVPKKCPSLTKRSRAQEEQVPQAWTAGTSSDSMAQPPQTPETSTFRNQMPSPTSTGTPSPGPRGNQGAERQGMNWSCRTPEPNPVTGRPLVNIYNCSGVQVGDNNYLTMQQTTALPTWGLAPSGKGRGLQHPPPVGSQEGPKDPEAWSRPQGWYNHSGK
# UniProt Q13158: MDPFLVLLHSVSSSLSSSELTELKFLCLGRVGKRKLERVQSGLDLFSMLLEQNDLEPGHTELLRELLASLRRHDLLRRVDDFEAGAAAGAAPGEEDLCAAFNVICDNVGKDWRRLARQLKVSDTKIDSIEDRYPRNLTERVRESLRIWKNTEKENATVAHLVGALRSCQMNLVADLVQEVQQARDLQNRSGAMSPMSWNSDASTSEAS
# UniProt Q14790: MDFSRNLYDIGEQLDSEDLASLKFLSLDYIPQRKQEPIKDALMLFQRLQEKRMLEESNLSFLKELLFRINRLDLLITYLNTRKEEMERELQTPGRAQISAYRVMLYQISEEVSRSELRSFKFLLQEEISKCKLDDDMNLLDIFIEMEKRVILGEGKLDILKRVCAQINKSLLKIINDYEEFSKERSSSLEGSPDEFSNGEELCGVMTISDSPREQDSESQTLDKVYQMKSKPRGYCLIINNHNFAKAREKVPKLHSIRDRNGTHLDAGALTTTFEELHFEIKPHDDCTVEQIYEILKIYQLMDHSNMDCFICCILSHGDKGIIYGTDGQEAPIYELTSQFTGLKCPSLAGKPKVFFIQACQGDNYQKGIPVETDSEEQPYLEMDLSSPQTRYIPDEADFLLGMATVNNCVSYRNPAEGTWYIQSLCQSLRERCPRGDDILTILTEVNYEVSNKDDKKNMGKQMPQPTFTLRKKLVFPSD
# UniProt P19474: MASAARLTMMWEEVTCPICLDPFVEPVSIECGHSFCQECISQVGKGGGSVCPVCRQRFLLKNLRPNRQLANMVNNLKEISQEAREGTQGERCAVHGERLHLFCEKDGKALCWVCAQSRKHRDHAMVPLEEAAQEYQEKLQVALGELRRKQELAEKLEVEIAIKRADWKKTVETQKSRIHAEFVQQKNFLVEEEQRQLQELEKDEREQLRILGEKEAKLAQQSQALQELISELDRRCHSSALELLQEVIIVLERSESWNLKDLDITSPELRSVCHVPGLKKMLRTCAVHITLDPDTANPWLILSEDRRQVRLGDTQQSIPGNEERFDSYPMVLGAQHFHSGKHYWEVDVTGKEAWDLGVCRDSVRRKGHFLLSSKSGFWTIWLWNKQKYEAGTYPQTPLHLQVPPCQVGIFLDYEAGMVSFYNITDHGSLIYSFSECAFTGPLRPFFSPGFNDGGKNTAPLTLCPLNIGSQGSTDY
# No constants are given. Whether binding was seen depends on the method and setting. In cells and extracts the contact can be indirect. Some entries that bind do so weakly or less than the wild type.
# Tests used:
# [1] = target: receptor-interacting serine/threonine-protein kinase 1 (human (endogenous in HT29)) (UniProt Q13546); experiment: co-IP; 4 mg of HT29 cell lysate immunoprecipitated with an anti-RIPK1 antibody, western blot; cells untreated (0 min) or treated with TRAIL-SK (500 ng/ml), z-VAD-fmk (25 µM) and Birinapant (1 µM) (TzB) for the indicated times
# [2] = target: receptor-interacting serine/threonine-protein kinase 3 (human (endogenous in HT29)) (UniProt Q9Y572); experiment: co-IP; HT29 cell lysate (RIPA buffer, 4 mg) incubated with anti-RIPK3 antibody (Pierce PA1-41533) 3 h at 4°C, Protein G Dynabeads overnight at 4°C, glycine pH 2.5 elution, western blot; cells untreated (0 min) or treated with TRAIL-SK (500 ng/ml), z-VAD-fmk (25 µM) and Birinapant (1 µM) (TzB) for the indicated times (0, 2, 3 h)
Substance,binding [1],binding [2]
receptor-interacting serine/threonine-protein kinase 3 (from UniProt Q9Y572 1-518),binds,
receptor-interacting serine/threonine-protein kinase 1 (from UniProt Q13546 1-671),,binds
Fas-associated with death domain protein (from UniProt Q13158 1-208),,binds
caspase-8 (from UniProt Q14790 1-479) (enzyme),,binds
tripartite motif containing 21 (from UniProt P19474 1-475),,binds
